Laboratory results as given in PubChem BioAssay AID2685 (National Center for Advancing Translational Sciences (NCATS), 2010).
The list shows a part of the results. Further columns of the screen follow, without active or inactive calls. The list favours compounds with an active or inconclusive main result. Potencies come from curve fits of mixed quality, noted in brackets.

Assay: qHTS Assay for Lipid Storage Modulators in Drosophila S3 Cells;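 on cell number change: cells counted by Cell Tracker Red CMTPX staining in the red channel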
Conditions: BODIPY lipid droplet fluorescence, 18-24 h; for cell number change: measured here: cell count max response, cells fed with added oleic acid
In short: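 Laser-scanning cytometry quantifies lipid droplet accumulation (500–530 nm total intensity; droplet/cell object ratio) in oleic acid-fed (400 uM added) Drosophila S3 cells treated with a concentration series. 20 uM Triacsin C defined 100% inhibition.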

[1] = measured here: lipid fluorescence (Fed channel) AC50, cells fed with added oleic acid
[2] = measured here: cell number channel AC50, cells fed with added oleic acid

Compound | cell number change [%] | AC50 [1] | AC50 [2]
Cc1cc(C)c2nc(N3C(=O)C(O)=C(C(=O)c4ccco4)C3c3ccco3)sc2c1 (stereo not given) | 15.7 | 0.58 µM [rising, single point] | –
COc1ccc(/C=N/NC(=O)CN(C2=NS(=O)(=O)c3ccccc32)c2ccccc2)cc1OC | -1.04 | 6.51 µM [rising, single point] | –
Cc1ccc(OCc2nc(-c3ccccc3)no2)cc1 | 28.1 | 0.146 µM [falling, full curve, poor fit] | –
S=C(NCc1ccccc1)NC1CCCc2ccccc21 (stereo not given) | -41.8 | – | –
CCOC(=O)CSc1nc2c(c(=O)[nH]c(=O)n2C)n1C/C=C(/C)Cl | -8.33 | 0.92 µM [falling, full curve] | –
CCOc1cc(C(=O)OCc2ccc(OC)cc2)ccc1OCC(=O)N1CCOCC1 | 44.5 | – | 16.4 µM [rising, single point]
CCOc1ccc(NC(=O)COc2ccc(-n3cnnn3)cc2)cc1 | -55.5 | 4.61 µM [falling, single point] | 9.2 µM [falling, partial curve]
Cc1ccc(NS(=O)(=O)c2ccc(NC(=O)CN(c3cc([N+](=O)[O-])ccc3C)S(C)(=O)=O)cc2)c(C)c1 | -10.1 | – | –
CN(C)C(=O)c1ccc(NC(=O)COC(=O)/C=C/c2cccs2)cc1 | -4.06 | 2.59 µM [rising, single point] | –
COc1cccc2cc(-c3nnc(SCC(=O)Nc4nc(C)cs4)n3C)oc12 | -73.9 | 20.6 µM [falling, partial curve] | 20.6 µM [falling, partial curve]
O=C(NCc1ccccc1)c1ccc2nccnc2c1 | – | 0.58 µM [falling, single point] | –
O=C1OC(/C(=C\NCc2ccccc2)[N+](=O)[O-])c2ccccc21 (stereo not given) | -16.9 | 0.651 µM [falling, partial curve, poor fit] | –
COc1ccc(-n2ncc3c(NCCN4CCOCC4)ncnc32)cc1 | 0.809 | – | –
CCOC(=O)c1c(C)[nH]c(C(=O)C(C)OC(=O)c2cnc(C)cn2)c1C (stereo not given) | -10.4 | 6.51 µM [falling, single point] | –
COc1ccc(C(=O)NC2CCCc3c2cnn3-c2ccc(C)c(C)c2)c(OC)c1OC (stereo not given) | -45.8 | – | 9.2 µM [falling, partial curve]
CSc1nsc(/C=C/Nc2cccc(Cl)c2)c1C#N | 80.5 | 0.651 µM [rising, full curve, poor fit] | 23.1 µM [rising, single point]
O=C(Cc1ccc(Br)cc1)NNC(=O)Nc1ccc(Cl)cc1 | 118 | 29.1 µM [rising, single point] | 18.4 µM [rising, partial curve]
CC1CN(C(=O)COC(=O)c2ccc(S(=O)(=O)N(C)C)cc2)CC(C)O1 (stereo not given) | -13.3 | – | –
NS(=O)(=O)c1cc(C(=O)OCC(=O)N2CCOCC2)ccc1Cl | 6.76 | 0.58 µM [falling, single point] | –
CC1CC(C)CN(C(=O)COC(=O)c2c[nH]c3ccccc23)C1 (stereo not given) | – | 1.3 µM [falling, full curve] | –

Compound | cell number change [%] | AC50 [1] | AC50 [2]
COc1ccc(C(=O)NC(=S)NCc2cccnc2)cc1Br | -5.37 | 0.708 µM [falling, partial curve, poor fit] | –
COc1ccc2nc(SCC(=O)Nc3c(C)cccc3C)[nH]c2c1 | 10.8 | – | 6.51 µM [rising, single point]
Cc1cccc(NC(=O)c2cc(S(=O)(=O)N3CCc4ccccc43)cn2C)c1C | 72.9 | – | 29.1 µM [rising, single point]
S=C1NC(c2ccccc2)N2C(=S)NC(c3ccccc3)N12 (stereo not given) | -1.65 | – | –
CCCCCCc1nc(C(N)=O)c2[nH]c(=O)n(-c3ccc(OCC)cc3)c2n1 | – | 6.51 µM [falling, single point] | –
COc1cccc(C(=O)NCCCNC(=O)c2cccnc2)c1 | 12.8 | 6.51 µM [rising, single point] | –
Cn1c(=O)c2c(nc(N/N=C/c3cccs3)n2Cc2ccc(Br)cc2)n(C)c1=O | – | 7.31 µM [rising, single point] | 4.11 µM [rising, partial curve]
Cc1c(C(=O)NC(C)CN2CCCCC2)oc2ccccc12 (stereo not given) | -6.05 | 29.1 µM [falling, single point] | –
CC(C)CCNC(=O)c1ccc2c(SCC(=O)O)c3c(nc2c1)CCCC3 | -31.4 | 29.1 µM [falling, single point] | 32.6 µM [falling, single point]
Cc1cc(C)nc(SCNC(=O)c2ccc(F)cc2)n1 | -0.891 | – | –
O=[N+]([O-])c1ccccc1Oc1ccc(C(F)(F)F)cn1 | 10.5 | 0.731 µM [falling, full curve, poor fit] | –
CN(CC(=O)Nc1ccccc1Cl)C(=O)COC(=O)Cc1c(F)cccc1Cl | 75.7 | 3.26 µM [falling, partial curve, poor fit] | 29.1 µM [rising, single point]
COCCN1CC(=O)N(c2cccc(C)c2C)C(c2ccc(Cl)cc2)C1=O (stereo not given) | 5.75 | 0.13 µM [falling, full curve] | –
CNS(=O)(=O)c1cccc(C(=O)NCC2(N3CCCCC3)CCCCC2)c1 | 30.8 | – | –
Cc1ccc(NC(=O)COc2ccccc2C(=O)NCCN(C)C)cc1 | – | 6.51 µM [falling, single point] | –
CCOc1ccc(C2=NNC(c3cccs3)=Nc3ccc(OC)cc32)cc1OCC | -30.9 | 29.1 µM [falling, single point] | 29.1 µM [falling, single point]
Cc1cccc2sc(NC(=O)c3cccc(S(=O)(=O)N4CCc5ccccc54)c3)nc12 | 18.5 | 18.4 µM [rising, single point] | 0.0517 µM [rising, full curve, poor fit]
CC(C)c1nnc(NC(=O)CCC(=O)NC2CCCCCCC2)s1 | -33.2 | – | 1.84 µM [falling, partial curve]
CC(C)(C)c1ccc(-c2noc(-c3ccc4c(c3)CCO4)n2)cc1 | 5.3 | 20.6 µM [rising, partial curve] | –
Cc1ccc(C)c(NC(=O)C(CC(=O)O)Cc2ccccc2)c1 (stereo not given) | -2.36 | 29.1 µM [falling, single point] | –

As entered above.
For cell number change [%], CC(C)c1nnc(NC(=O)CCC(=O)NC2CCCCCCC2)s1 shows -33.2
For AC50 [1], Cc1cccc2sc(NC(=O)c3cccc(S(=O)(=O)N4CCc5ccccc54)c3)nc12 shows 18.4 µM [rising, single point]
For AC50 [2], Cc1cccc(NC(=O)c2cc(S(=O)(=O)N3CCc4ccccc43)cn2C)c1C shows 29.1 µM [rising, single point]

The results go on:

Compound | cell number change [%] | AC50 [1] | AC50 [2]
CCOC(=O)C1=C(C)NC(=O)NC1c1ccc(OC)c(CN2CCOCC2)c1 (stereo not given) | -83.6 | 23.1 µM [falling, partial curve] | 23.1 µM [falling, partial curve, poor fit]
CS(=O)(=O)N(CCC#N)Cc1ccc(/C=C2\C(=O)Nc3ccccc32)o1 | -40.3 | 29.1 µM [falling, single point] | 18.4 µM [falling, single point]
C/C(=N\NC(=O)c1c[nH]c2ccccc12)c1ccco1 | 109 | 6.51 µM [rising, single point] | 29.1 µM [rising, single point]
C=CCn1c(SCC(=O)Nc2c(C)n(C)n(-c3ccccc3)c2=O)nc2sc(C)c(-c3ccccc3)c2c1=O | -12.6 | – | –
CN1CCN(c2ccc(NC(=O)c3ccc(Br)o3)cc2)CC1 | 1.39 | 0.13 µM [rising, full curve, poor fit] | –
Cc1cc(Br)ccc1NC(=O)CCN1C(=O)c2ccncc2C1=O | – | 1.16 µM [rising, partial curve] | 1.64 µM [rising, partial curve]
N#Cc1ccc(-c2ccc(C3Nc4ccccc4C(=O)N3O)o2)cc1 (stereo not given) | -0.226 | – | –
CCOC(=O)CCc1c(C)c(C#N)c2[nH]c3ccccc3n2c1=O | -11 | 0.103 µM [rising, full curve, poor fit] | –
NC(=O)Cn1cc(/C=N/NC(=O)c2ccc(Cn3cc(Cl)cn3)o2)c(-c2ccccc2)n1 | -14.2 | 29.1 µM [rising, single point] | –
COc1cc(-c2noc(C3CCCN(C(=O)c4ccccc4)C3)n2)cc(OC)c1OC (stereo not given) | -24.9 | 25.9 µM [falling, single point] | –
C=CCNC(=S)NS(=O)(=O)c1cccs1 | 19.8 | 0.731 µM [rising, single point] | –
CCNC(=S)NS(=O)(=O)c1ccccc1 | -19.8 | – | –
Cc1nc2sc(C(c3ccccc3)N3CCN(c4ccccc4F)CC3)c(O)n2n1 (stereo not given) | 171 | 16.4 µM [rising, partial curve] | 16.4 µM [rising, partial curve]
Cc1cccc(N(CC(=O)NCC2CCCO2)C(=O)CNS(=O)(=O)c2ccc(Cl)cc2)c1 (stereo not given) | 25.8 | – | –
Cc1ccc(C(=O)NC(C)c2ccc3c(c2)OCO3)s1 (stereo not given) | 14.9 | – | –
CCCS(=O)(=O)c1c(S(=O)(=O)CCC)c2c(N)cccn2c1C(=O)c1ccc(F)cc1 | 6.75 | 2.91 µM [rising, single point] | –
CSc1nnc2c3c4c(sc3c(=O)n(-c3ccccc3)n12)CC(C)(C)OC4 | -3.23 | 29.1 µM [rising, single point] | –
COc1ccc(N2CC(C(=O)Nc3nnc(SCCC4OCCO4)s3)CC2=O)cc1 (stereo not given) | -45.7 | 0.0058 µM [falling, full curve, poor fit] | 0.00461 µM [falling, full curve, poor fit]
COCC(C)OC(=O)c1c(N)n(CCCN2CCOCC2)c2nc3ccccc3nc12 (stereo not given) | 18.7 | 1.84 µM [falling, single point] | –
